Experimental data reported in PubChem BioAssay AID901 (National Center for Advancing Translational Sciences (NCATS), 2007).
Some of the results follow. Shown are side measurements of this screen, not its main read-out; they come without a call. The list favours compounds with an active or inconclusive main result. Words in brackets tell the shape of the fitted curve; partial curves, single points and poor fits give uncertain potencies.

Experiment: qHTS Assay for Identifying the Cell-Membrane Permeable IMPase Inhibitors
Settings: CHO-M1 cells, IP1 accumulation, HTRF TR-FRET ratio; measured here: donor channel 620 nm AC50

Structure (SMILES)	AC50
Cc1ccc(CSc2ncnc3c2cnn3-c2ccc(C)cc2)cc1	3160 nM [rising, partial curve, poor fit]
COc1ccc(N2CCN(C(=O)CCN3C(=O)c4ccccc4S3(=O)=O)CC2)cc1	158 nM [falling, full curve, poor fit]
CCOC(=O)c1ccc(NC(=O)CSc2nc3cc4ccccc4cc3[nH]2)cc1	5620 nM [rising, single point]
Cn1c(CNC(=O)Nc2cccc(Cl)c2)nnc1SCc1ccccc1	5010 nM [rising, partial curve, poor fit]
CCc1sc(C(=O)Nc2ccsc2C(=O)OC)cc1Br	31600 nM [rising, single point]
O=C(NCc1ccc2c(c1)OCO2)C1CC(=O)N(c2ccc(F)cc2)C1 (centres undefined)	200 nM [falling, full curve]
Cn1c(-c2ccccc2)cnc1SCC(=O)NCc1ccco1	178 nM [falling, full curve, poor fit]
Brc1ccc(-c2csc(-c3c[nH]c4ccccc34)n2)cc1	20000 nM [rising, single point]
COCCn1c(Sc2nc(C)cs2)nc2c1c(=O)[nH]c(=O)n2C	14100 nM [falling, single point]
O=C(c1ccco1)N1CCN(C(=O)C2CCN(S(=O)(=O)c3cnc[nH]3)CC2)CC1	11200 nM [rising, single point]
COCC(=O)n1nc(-c2ccccc2)nc1NCc1ccc(F)cc1	12.6 nM [rising, full curve, poor fit]
C=CCn1c(Sc2ccccc2)nc2c1c(=O)[nH]c(=O)n2C	7940 nM [falling, single point]
CCOC(=O)Cc1nnc(NC(=O)c2ccccc2OC)s1	10 nM [falling, full curve, poor fit]
Cn1nnnc1SCC(=O)NCC(=O)c1ccccc1	631 nM [falling, partial curve]
CCCn1nc2ccccc2c1P(=N)(N1CCOCC1)N1CCOCC1	794 nM [rising, full curve, poor fit]
Cc1sc2ncnc(SCC(=O)NNC(=O)COc3cccc4ccccc34)c2c1C	6310 nM [rising, single point]
CCOc1ccccc1C(=O)OCC(=O)Nc1ccc(OC(F)F)cc1	31600 nM [falling, single point]
CCOC(=O)CSC1=C(C#N)C(c2ccc(Cl)cc2)C(C(=O)OC)C(=O)N1 (centres undefined)	31.6 nM [falling, full curve, poor fit]
CCOC(=O)C1CCCN(Cc2ccc3c(c2)OCO3)C1 (centres undefined)	251 nM [falling, full curve]
O=C(Nc1ccc(Br)cc1)C1CCC(=O)N1Cc1ccccc1Cl (centres undefined)	3980 nM [rising, single point]
COc1ccc(Nc2ncnc3sc(-c4ccccc4)cc23)cc1	3.98 nM [rising, full curve, poor fit]
CC(=O)Nc1ccc(S(=O)(=O)N2CCN(C(=O)CCC3CCCC3)CC2)cc1	31600 nM [falling, single point]

Structure (SMILES)	AC50
CCc1ccc(S(=O)(=O)Nc2cc3c(C(=O)OCc4ccccc4)c(C)oc3c3ccccc23)cc1	224 nM [falling, full curve, poor fit]
CC(=O)c1ccc(N2CCN(C(=O)C3CCCN(S(=O)(=O)c4ccc(Br)s4)C3)CC2)cc1 (centres undefined)	17800 nM [rising, single point]
Cn1c(=O)c2c(SCc3ccccc3)nc(-c3ccco3)nc2n(C)c1=O	31600 nM [rising, single point]
COc1ccc(-c2ccc3c(N)c(C(=O)Nc4ccc(C(F)(F)F)cc4)sc3n2)cc1OC	35500 nM [rising, single point]
Cc1ccc(NC(=S)NNC(=O)Cn2nc([N+](=O)[O-])cc2C)cc1	1580 nM [falling, full curve, poor fit]
Cc1ccc(NC(=O)N2Cc3ccccc3CC2C(=O)NC(C)(C)C)cc1 (centres undefined)	3.98 nM [rising, full curve, poor fit]
CN(C)S(=O)(=O)N1CCc2ccccc21	631 nM [falling, full curve, poor fit]
COc1cc(Cl)c(C)cc1NC(=O)c1cn(C2CCCC2)c(=O)c2c1c1ccccc1n2C	5620 nM [rising, single point]
O=C(CSc1nc2nc(-c3cccs3)cc(C(F)(F)F)c2c(=O)[nH]1)NCc1ccco1	12600 nM [rising, partial curve, poor fit]
N#C/C(C(N)=O)=c1/ccc2c(c1)N1C3=C(CCCC3)CC3CCCCC31N=2 (centres undefined)	12600 nM [falling, partial curve]
Cc1occc1-c1nnc(SCC(=O)N2CCCc3ccccc32)n1Cc1ccco1	2000 nM [falling, partial curve]
CC(C)CC(NC(=O)C(CC(C)C)NC(=O)OC(C)(C)C)C(N)=O (centres undefined)	7.94 nM [falling, full curve, poor fit]
O=C1N(Cc2ccccc2)CCCC12CCCN(Cc1ccccc1)C2=O	25.1 nM [falling, full curve, poor fit]
OCCN(Cc1ccccc1)Cc1cccc(C(F)(F)F)c1	891 nM [falling, partial curve, poor fit]
CCCCOc1ccc(C(=O)Nc2ccc(S(=O)(=O)Nc3nc(C)cc(C)n3)cc2)cc1	10000 nM [falling, partial curve, poor fit]
CC(C)(C)C1CCc2c(sc(NC(=O)c3ccco3)c2C(N)=O)C1 (centres undefined)	1580 nM [rising, partial curve, poor fit]
O=C(CSc1nnnn1C1CCCC1)N1CCCc2ccccc21	31600 nM [falling, single point]
O=C(Nc1ccc(-c2nnc(-c3ccccc3)o2)cc1)C1CCCO1 (centres undefined)	20 nM [falling, full curve]
O=C(C1CCN(C2CC(=O)N(c3ccc(F)cc3)C2=O)CC1)N1CCOCC1 (centres undefined)	631 nM [falling, full curve]
CCC(=O)Nc1ccc2c(c1)nc1n2CCSC1	63.1 nM [rising, full curve, poor fit]
COc1ccc(Cl)cc1NC(=O)CSC1=Nc2ccccc2C2=NC(CCC(=O)NCc3ccc(F)cc3)C(=O)N12 (centres undefined)	22400 nM [rising, single point]
CCc1nc2ccccc2c(C(=O)OCCN2C(=O)c3ccccc3C2=O)c1C	3.16 nM [rising, full curve, poor fit]

As a short view, some entries already given:
Structure (SMILES)	AC50
Cc1ccc(NC(=O)N2Cc3ccccc3CC2C(=O)NC(C)(C)C)cc1 (centres undefined)	3.98 nM [rising, full curve, poor fit]
CN(C)S(=O)(=O)N1CCc2ccccc21	631 nM [falling, full curve, poor fit]

Following part:

Structure (SMILES)	AC50
N#Cc1cnc(SCC(=O)Nc2ccccc2C(F)(F)F)nc1N	1000 nM [falling, full curve]
O=C(NCc1cccnc1)c1ccc(COc2cccc3ccccc23)o1	25100 nM [rising, partial curve]
COc1ccc(CN(C(=O)c2ccco2)c2ccc(Br)cc2)cc1OC	794 nM [falling, single point]
COc1ccc(N2C(=O)c3ccccc3NC2c2ccc(OC)c(CSc3ccccn3)c2)cc1 (centres undefined)	31600 nM [rising, single point]
O=C(OCc1nc2ccccc2s1)C1CCN(S(=O)(=O)c2cccs2)CC1	1260 nM [falling, full curve, poor fit]
CCOc1ccc(CCNC(=O)Cn2c(-c3nonc3N)nc3ccccc32)cc1OCC	4470 nM [rising, single point]
CC(C)c1ccc(S(=O)(=O)/N=C2/C=C(Sc3ncn[nH]3)C(=O)c3ccccc32)cc1	28200 nM [falling, partial curve]
Cc1c(C(=O)Oc2cccc3ccccc23)cnn1-c1ccccc1	100 nM [falling, full curve, poor fit]
c1ccc2c(-c3ccncc3)c[nH]c2c1	100 nM [falling, partial curve, poor fit]
CC(C)(C)c1ccc(S(=O)(=O)N2C=CC(C(F)(F)F)=NCC2)cc1	251 nM [falling, full curve, poor fit]
O=S(=O)(c1ccc2c(c1)N(Cc1ccc(Cl)cc1)C1CCCN21)N1CCOCC1 (centres undefined)	3160 nM [rising, full curve]
Cc1nc2ccccn2c1C(=O)NCc1ccc2c(c1)OCO2	31.6 nM [falling, full curve, poor fit]
CCCOC(=O)c1ccc(Oc2c(-c3ccc(O)cc3O)n[nH]c2C)cc1	398 nM [falling, full curve, poor fit]
O=C1C(Cl)=C(NCC2CCCO2)C(=O)N1c1ccccc1 (centres undefined)	3980 nM [rising, full curve, poor fit]
COc1ccc(CC(=O)OCc2nnc(C3COc4ccccc4O3)o2)cc1OC (centres undefined)	15800 nM [rising, partial curve]
CC1=C(C(=O)Nc2cccnc2)C(c2ccc(Cl)cc2)n2nc(-c3ccccc3)nc2N1 (centres undefined)	10000 nM [falling, partial curve, poor fit]
CCCN1C2=C(C(=O)CCC2)C(c2ccc(O)c(Br)c2)C2=C1CCCC2=O	1780 nM [rising, full curve, poor fit]
CC(C)=C1C2CC2C2C(C(=O)O)C12 (centres undefined)	25100 nM [rising, partial curve, poor fit]
Cc1ccc(NC(=O)c2cnn3c(C(F)F)cc(-c4ccccc4)nc23)cc1F	31.6 nM [falling, full curve, poor fit]
CCn1c(-c2ccc(F)cc2)cnc1SCC(=O)N1CCc2ccccc21	11200 nM [rising, partial curve, poor fit]
